Reference: PMC7819943, “Rice protein-binding microarrays: a tool to detect cis-acting elements near promoter regions in rice”
The other results are listed elsewhere or left out.

Protein sequences, listed by entry. Tags and fused reporters are not part of them.
UniProt Q0JBA9, entry or part of it: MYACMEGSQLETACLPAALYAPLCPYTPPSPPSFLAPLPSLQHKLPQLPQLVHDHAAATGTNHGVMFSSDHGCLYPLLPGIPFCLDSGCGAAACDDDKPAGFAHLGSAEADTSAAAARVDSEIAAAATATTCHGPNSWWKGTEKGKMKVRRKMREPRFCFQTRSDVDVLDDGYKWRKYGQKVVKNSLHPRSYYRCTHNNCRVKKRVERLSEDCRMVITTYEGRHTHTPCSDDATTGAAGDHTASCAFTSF

biological target: OsWRKY34 (Oryza sativa, UniProt Q0JBA9 1-250); assay: protein-binding microarray (RPBM); PBS, 2% BSA, 51.3 ng/ul salmon testes DNA, 50 uM zinc acetate, 200 nM TF, 25 C, 1 h; high values mean tight binding; conditions: protein: recombinant; tags: N-terminal polyhistidine and DsRed monomer fusion (pET32a); label: CyDye5-dUTP incorporated in the synthesized complementary strand; 3' TTTTT single-stranded linker to array surface; dsDNA, one strand shown
How it was run: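 For the binding signal, per-feature fluorescence intensity was read in arbitrary units on an Axon 4000B scanner. Before scanning, a 2% BSA-blocked custom Agilent array made double-stranded with Cy5-dUTP was washed after 1 h at 25 °C with 200 nM protein and 50 µM zinc acetate. The proteins were Ni–NTA-purified transcription factors with N-terminal polyhistidine and DsRed fusions, expressed in E. coli BL21-CodonPlus.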

Compared with “CTCTCTCCTCGCGTCTGCGTGTCAACGCCTACACAAACAGCGGAGTCACCTAGTGCAG”, “GAATTGCAAGTTTTCTGTTTACCCTGCTTCTTATTATTTTCGGAGTCACCTAGTGCAG” is higher in binding signal: 8530 fluorescence intensity (a.u.) for the first, 13800 fluorescence intensity (a.u.) for the second.

Going from “CCACTGCAGCCGTCTTTACTCTTTCTTTTGCAAAAAAAAACGGAGTCACCTAGTGCAG” to “ACTGACGATCAATGCTGCGCTGGATGATTTTGCTTTCAAACGGAGTCACCTAGTGCAG”, the binding signal falls from 9160 fluorescence intensity (a.u.) to 8420 fluorescence intensity (a.u.).

First: TTTGGTTACCGCATTTTTGTGTTCTTCTGTGCAGTTTAGCCGGAGTCACCTAGTGCAG
Second: ACGGCACCTCATAGATTATTCCGTCCGTTCCAACAACCTCCGGAGTCACCTAGTGCAG
The binding signal of the first is lower: 8150 fluorescence intensity (a.u.) for the first, 8320 fluorescence intensity (a.u.) for the second.

Compared with “ATATCATGCAATCAACAGAGAGTACAACTTGTTCCTACCACGGAGTCACCTAGTGCAG”, “GACAAGGTTTGACTAAAAGATGGGTGTATCACATGTGGGCCGGAGTCACCTAGTGCAG” is higher in binding signal: 8030 fluorescence intensity (a.u.) for the first, 9140 fluorescence intensity (a.u.) for the second.

Compared with “ACTTCCAAGTCTTCGACCGCGACACTCCTTACCCGCACGCCGGAGTCACCTAGTGCAG”, “ATATCCAACTTTAATCGTCCATTTTATTTGTTTTTTTTAACGGAGTCACCTAGTGCAG” is higher in binding signal: 8570 fluorescence intensity (a.u.) for the first, 9110 fluorescence intensity (a.u.) for the second.

Compared with “TCATGGCTTGTAGGTTTTCAGCTGCTTTCTGCTAAGTACACGGAGTCACCTAGTGCAG”, “TATTAGTGTTTTATTTTCACCGGTTAATATTTTTGTTCTTCGGAGTCACCTAGTGCAG” is lower in binding signal: 9310 fluorescence intensity (a.u.) for the first, 8880 fluorescence intensity (a.u.) for the second.

First: CCCTCCATTTTTTTTTTCTTATTTCGCGCTCTCTCTCCAACGGAGTCACCTAGTGCAG
Second: ACTATACTTGGTATACTTGGTCCGGGGTTTGTTCATCTTGCGGAGTCACCTAGTGCAG
The binding signal of the first is higher: 8690 fluorescence intensity (a.u.) for the first, 8640 fluorescence intensity (a.u.) for the second.

First: TGACGATGACTGGAACTCCAAGCCTCCAACTAGTTATTTTCGGAGTCACCTAGTGCAG
Second: GTTTGCATGTTAAGCTTTAGGATTTGGTGGGTTATAATTTCGGAGTCACCTAGTGCAG
The binding signal of the first is lower: 8370 fluorescence intensity (a.u.) for the first, 10800 fluorescence intensity (a.u.) for the second.

First: CTCTCCACCGCCATTAACGGTTACTTATCTCTCTAGTACTCGGAGTCACCTAGTGCAG
Second: ACGTACGCCTTCATCGACGCTTAATCGATCTGTTTCCATGCGGAGTCACCTAGTGCAG
The binding signal of the first is lower: 8060 fluorescence intensity (a.u.) for the first, 8960 fluorescence intensity (a.u.) for the second.

First: AGATACTCATTTCCACCTCTTCCTCTCAAGTTATTACACTCGGAGTCACCTAGTGCAG
Second: TTTTCAGGTGGAATTTGTAATTTGTTTTGTTATTAGGCTACGGAGTCACCTAGTGCAG
The binding signal of the first is higher: 10000 fluorescence intensity (a.u.) for the first, 8130 fluorescence intensity (a.u.) for the second.

Compared with “ATATTTTGTTGCACCCTTTTGGTTATGCAATTGCTACACTCGGAGTCACCTAGTGCAG”, “ATTCGGACGGTGTTTGATCTTTCTGTCGTGATTGCTTTGCCGGAGTCACCTAGTGCAG” is lower in binding signal: 11600 fluorescence intensity (a.u.) for the first, 9040 fluorescence intensity (a.u.) for the second.

Going from “ATATGTACCGTCATATCCCATCCAGTTTTGACGGTAAATCCGGAGTCACCTAGTGCAG” to “AACCTCTGCACCTCCTCCAACCAAACTAGCAGCTCCTGATCGGAGTCACCTAGTGCAG”, the binding signal rises from 8550 fluorescence intensity (a.u.) to 8590 fluorescence intensity (a.u.).

Going from “GCCAAACCACATGCATCCTATTATTTTGAAATTCATGAAGCGGAGTCACCTAGTGCAG” to “TGCTGACTTGTTGCAACTTTGAACTACTTTCATCGTATAGCGGAGTCACCTAGTGCAG”, the binding signal falls from 11000 fluorescence intensity (a.u.) to 8560 fluorescence intensity (a.u.).

Going from “ACTTAGTATGAACTAGATACTGCCGCGCGTTTGGGCATTCCGGAGTCACCTAGTGCAG” to “TCGATTCGACGACACCTTCATTTTTATTTTCTTCCTTGTGCGGAGTCACCTAGTGCAG”, the binding signal falls from 9230 fluorescence intensity (a.u.) to 9200 fluorescence intensity (a.u.).

First: GATATTGGCTGTGTTCAGTTCCCTTTAAACTTTCAACTTTCGGAGTCACCTAGTGCAG
Second: GAGTATTTTTTATCCGGCCTCTATATCCATTTAAATATATCGGAGTCACCTAGTGCAG
The binding signal of the first is higher: 8480 fluorescence intensity (a.u.) for the first, 8200 fluorescence intensity (a.u.) for the second.

Going from “GCTAAGTACTCCGTTGTCACCGCGTCCTTGGTTTTGCTAACGGAGTCACCTAGTGCAG” to “CGGGCCAGCAAATCCTTCATCACTGTCTGCTGGATCGGCCCGGAGTCACCTAGTGCAG”, the binding signal falls from 13100 fluorescence intensity (a.u.) to 9160 fluorescence intensity (a.u.).

First: GCTTCCTCCCTACGAGCACGACCCACCCACGTCATCATCCCGGAGTCACCTAGTGCAG
Second: GGCGTCAAATTTGGGTATAAACAATTTCCTTTTCTCTTTCCGGAGTCACCTAGTGCAG
The binding signal of the first is lower: 8290 fluorescence intensity (a.u.) for the first, 8390 fluorescence intensity (a.u.) for the second.

Compared with “CTTCAACCCCACGGCCCAGTACTGTATATCGATGGCCCACCGGAGTCACCTAGTGCAG”, “TCACTCATCGCCGCTCCGCCATTGCCCAGAGCTTTTCTTTCGGAGTCACCTAGTGCAG” is higher in binding signal: 8170 fluorescence intensity (a.u.) for the first, 12700 fluorescence intensity (a.u.) for the second.

Compared with “ATGTCCATGCAACGTTTCTCAATTCAATGAGCAGGAAGACCGGAGTCACCTAGTGCAG”, “TCGTGGTGGTTTTGTTTCTCTCCTTCCCACCTACTCTCTCCGGAGTCACCTAGTGCAG” is higher in binding signal: 8230 fluorescence intensity (a.u.) for the first, 8390 fluorescence intensity (a.u.) for the second.

Compared with “CTTGCATACCCTTCCCGTCAGTTGACCGTGTATTTTCTATCGGAGTCACCTAGTGCAG”, “ACAAATCCCCGAACTTGCGAAGTATCGGCCTCTTCTTCTTCGGAGTCACCTAGTGCAG” is lower in binding signal: 14400 fluorescence intensity (a.u.) for the first, 12000 fluorescence intensity (a.u.) for the second.

First: TCCCCAGCGGCGTACCAGTTCTCCCGTACCATCTGCAGAACGGAGTCACCTAGTGCAG
Second: CCACCGCGCGCGCGCTCTCCACAGAAAATAATCTCCGCCGCGGAGTCACCTAGTGCAG
The binding signal of the first is lower: 8110 fluorescence intensity (a.u.) for the first, 8400 fluorescence intensity (a.u.) for the second.
